PubChem BioAssay AID504791, Drosophila RNAi Screening Center | 2011
The deposit covers about 23,000 reagents; this is an unselected part of those with a known target gene and a result. In the full data, 199 (0.86%) are marked active. 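Plate-scaled ratios behind the calls are not deposited; printed light signals are raw; many rows marked increased or decreased are still called inactive.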 A number with no mark means an inactive call. Names joined by + are all predicted targets of the reagent.

Test: 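Genes whose knock-down strengthens or weakens small-RNA reporter silencing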 (primary screen)
Cell system: Drosophila S2-derived reporter cells
Reagents: long dsRNA against Drosophila genes, about 150-250 ng dsRNA per well (siRNA assay); about 80-120 ng (miRNA assay)
Timing: about 5 days (siRNA assay); about 4 days (miRNA assay)
Conditions: copper sulfate induction of reporters: 25 µM (siRNA assay); 200 mM stated (miRNA assay), 1-2 days before reading
Measurement: 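Per-well ratio of Renilla over firefly light, expressed relative to that plate's average ratio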
Scale: siRNA reporter hit score: higher = 3 marks a strong hit with raised ratio; -3 a strong hit with lowered ratio
Rule for the call: 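a well was a first-pass pick when its plate-scaled ratio rose above 1.5 (siRNA assay) or 1.6 (miRNA assay), or dropped below 0.6; a gene counted only if two separate dsRNAs agreed on retest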

no.	gene	amplicon	siRNA reporter hit score	stable siRNA reporter change	miRNA reporter change	stable assay Renilla, run 1 (luminescence)	stable assay firefly, run 1 (luminescence)
1	CG42382	DRSC07671				6802	3.85e5
2	Ctu1 (Cytosolic thiouridylase subunit 1)	DRSC07069				7232	3.19e5
3	CG14321	DRSC14800				7306	4.77e5
4	CG14356	DRSC14819				6330	5.09e5
5	CG14891	DRSC15013				9584	3.07e5
6	CG14052	DRSC17907				4818	3.71e5
7	CG14052	DRSC18192	-3			7468	4.47e5
8	CG32376	DRSC22754				4435	3.61e5
9	SkpE (SKP1-related E)	DRSC19431				6442	3.92e5
10	rig (rigor mortis)	DRSC06053				7610	3.13e5
11	rig (rigor mortis)	DRSC06400		reporter ratio lowered past the hit cutoff		3779	4.89e5
12	PGRP-SC1a (Peptidoglycan recognition protein SC1a)	DRSC06482				6388	3.19e5
13	Amun	DRSC19847				3899	3.83e5
14	flz (filzig)	DRSC07109				6827	3.95e5
15	CG31769	DRSC01361				5846	4.84e5
16	CG7443	DRSC16244				6507	5.02e5
17	mRpL49 (mitochondrial ribosomal protein L49)	DRSC19908				4747	3.72e5
18	pigeon	DRSC03565				1.56e5	1.26e6
19	CG13137	DRSC02234				8218	3.49e5
20	CG14860	DRSC14983				6710	4.56e5
21	CG14315	DRSC14794				7607	4.33e5
22	Bap60 (Brahma associated protein 60kD)	DRSC19337		reporter ratio lowered past the hit cutoff (active)	reporter ratio lowered past the hit cutoff	6363	8.57e5
23	trio	DRSC07928				5644	4.25e5
24	trio	DRSC08527				6046	3.10e5
25	trio	DRSC08740				5815	4.22e5
26	Sf3a2 (Splicing factor 3a subunit 2)	DRSC09801				11193	6.97e5
27	EMC4 (ER membrane protein complex subunit 4)	DRSC11638				7091	4.90e5
28	RpS8 (Ribosomal protein S8)	DRSC16318	3			5915	3.44e5
29	Eglp1 (Entomoglyceroporin 1)	DRSC04502				2.19e5	7.09e5

Already shown: an excerpt of the list.
no.	gene	amplicon	siRNA reporter hit score	stable siRNA reporter change	miRNA reporter change	stable assay Renilla, run 1 (luminescence)	stable assay firefly, run 1 (luminescence)
24	trio	DRSC08527				6046	3.10e5
25	trio	DRSC08740				5815	4.22e5
26	Sf3a2 (Splicing factor 3a subunit 2)	DRSC09801				11193	6.97e5
27	EMC4 (ER membrane protein complex subunit 4)	DRSC11638				7091	4.90e5
28	RpS8 (Ribosomal protein S8)	DRSC16318	3			5915	3.44e5

The results go on:
no.	gene	amplicon	siRNA reporter hit score	stable siRNA reporter change	miRNA reporter change	stable assay Renilla, run 1 (luminescence)	stable assay firefly, run 1 (luminescence)
30	Stim (Stromal interaction molecule)	DRSC20158				9819	6.96e5
31	CG13858 (retired record)	DRSC14708				6676	3.45e5
32	CG13858 (retired record)	DRSC14709				7976	3.11e5
33	CG13858 (retired record)	DRSC14710				7514	3.11e5
34	CG13858 (retired record)	DRSC14711				8135	3.63e5
35	CG6168	DRSC10596				6671	3.64e5
36	Mst98Ca (Male-specific RNA 98Ca)	DRSC16749				4127	3.32e5
37	Adk3 (Adenosine kinase 3)	DRSC05917				30369	1.60e6
38	Mst98Cb (Male-specific RNA 98Cb)	DRSC16750				4515	3.38e5
39	Mst98Cb (Male-specific RNA 98Cb)	DRSC22495		reporter ratio lowered past the hit cutoff		2012	3.29e5
40	CG6195	DRSC15989				7926	3.49e5
41	CG1979	DRSC12495				8867	4.22e5
42	spn-D (spindle D)	DRSC22641				3851	4.32e5
43	Tmtc3 (Transmembrane O-mannosyltransferase targeting cadherins 3)	DRSC04444				1.50e5	5.74e5
44	capt (capulet)	DRSC00676				8018	4.68e5
45	capt (capulet)	DRSC00806				7548	3.42e5
46	CR42532 (pseudo)	DRSC06713				6348	3.80e5
47	AstA-R2 (Allatostatin A receptor 2)	DRSC14171				6327	3.20e5
48	Vps15 (Vacuolar protein sorting 15)	DRSC16553				7003	4.47e5
49	CG31178	DRSC14590				8375	4.18e5
50	PIG-L (Phosphatidylinositol glycan anchor biosynthesis class L)	DRSC15577				7298	3.95e5
51	CG9801	DRSC16568				7450	4.39e5
52	Cdc6 (Cell division cycle 6)	DRSC10563				7151	4.58e5
53	CG1271	DRSC08290				8174	5.36e5
54	CG12511	DRSC02171				8455	4.92e5
55	CG9386	DRSC16485		reporter ratio raised past the hit cutoff (active)	reporter ratio raised past the hit cutoff	9598	3.05e5
56	CG34260 + cmpy	DRSC11701				8920	4.41e5
57	Nep5 (Neprilysin 5)	DRSC16004				9291	5.37e5
